In paper PMC10454406 one finds binding data, which are given here for two molecules.

Sequences of proteins named here, by UniProt entry; tags and fusion partners are left off. A change or cut given only in a name is not applied to a line headed by its entry.
UniProt O00560, whole entry: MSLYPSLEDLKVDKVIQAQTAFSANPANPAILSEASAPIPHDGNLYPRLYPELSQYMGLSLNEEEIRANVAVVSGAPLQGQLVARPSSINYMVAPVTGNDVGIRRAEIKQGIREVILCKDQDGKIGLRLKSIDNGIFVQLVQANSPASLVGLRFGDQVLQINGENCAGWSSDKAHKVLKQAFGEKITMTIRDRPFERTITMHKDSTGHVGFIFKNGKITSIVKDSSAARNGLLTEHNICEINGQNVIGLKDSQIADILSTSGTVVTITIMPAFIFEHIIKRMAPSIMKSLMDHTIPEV

No constants are given. Whether binding was seen depends on the method and setting. In cells and extracts the contact can be indirect. Sequences can lack the tags named with a protein.

The target in the test is GFP-SARS-CoV-2 E protein lacking the PBM (stop mutant) (SARS-CoV-2) (UniProt P0DTC4). In words: co-IP.

Turning to HA-syntenin (from UniProt O00560 1-298), the binding entry is listed as “no binding”.

B1: Myc-ZO-2 (protein, UniProt Q9UDY2 1-1190)
chain: MPVRGDRGFPPRRELSGWLRAPGMEELIWEQYTVTLQKDSKRGFGIAVSGGRDNPHFENGETSIVISDVLPGGPADGLLQENDRVVMVNGTPMEDVLHSFAVQQLRKSGKVAAIVVKRPRKVQVAALQASPPLDQDDRAFEVMDEFDGRSFRSGYSERSRLNSHGGRSRSWEDSPERGRPHERARSRERDLSRDRSRGRSLERGLDQDHARTRDRSRGRSLERGLDHDFGPSRDRDRDRSRGRSIDQDYERAYHRAYDPDYERAYSPEYRRGARHDARSRGPRSRSREHPHSRSPSPEPRGRPGPIGVLLMKSRANEEYGLRLGSQIFVKEMTRTGLATKDGNLHEGDIILKINGTVTENMSLTDARKLIEKSRGKLQLVVLRDSQQTLINIPSLNDSDSEIEDISEIESNRSFSPEERRHQYSDYDYHSSSEKLKERPSSREDTPSRLSRMGATPTPFKSTGDIAGTVVPETNKEPRYQEDPPAPQPKAAPRTFLRPSPEDEAIYGPNTKMVRFKKGDSVGLRLAGGNDVGIFVAGIQEGTSAEQEGLQEGDQILKVNTQDFRGLVREDAVLYLLEIPKGEMVTILAQSRADVYRDILACGRGDSFFIRSHFECEKETPQSLAFTRGEVFRVVDTLYDGKLGNWLAVRIGNELEKGLIPNKSRAEQMASVQNAQRDNAGDRADFWRMRGQRSGVKKNLRKSREDLTAVVSVSTKFPAYERVLLREAGFKRPVVLFGPIADIAMEKLANELPDWFQTAKTEPKDAGSEKSTGVVRLNTVRQIIEQDKHALLDVTPKAVDLLNYTQWFPIVIFFNPDSRQGVKTMRQRLNPTSNKSSRKLFDQANKLKKTCAHLFTATINLNSANDSWFGSLKDTIQHQQGEAVWVSEGKMEGMDDDPEDRMSYLTAMGADYLSCDSRLISDFEDTDGEGGAYTDNELDEPAEEPLVSSITRSSEPVQHEESIRKPSPEPRAQMRRAASSDQLRDNSPPPAFKPEPPKAKTQNKEESYDFSKSYEYKSNPSAVAGNETPGASTKGYPPPVAAKPTFGRSILKPSTPIPPQEGEEVGESSEEQDNAPKSVLGKVKIFEKMDHKARLQRMQELQEAQNARIEIAQKHPDIYAVPIKTHKPDPGTPQHTSSRPPEPQKAPSRPYQDTRGSYGSDAEEEEYRQQLSEHSKRGYYGQSARYRDTEL
As to B1, the binding entry was “no binding”.
